Where two headings read alike, the source gives them in different places.
Test system: Dicamba-selected soybean shoots

COc1c(Cl)ccc(Cl)c1C(=O)O [dicamba, 3,6-dichloro-o-anisic acid]
escape rate (rooting in Oasis plugs in liquid medium with 0.01 mg/l dicamba): about 33% | escape rate (roots induced in the semi-solid medium): 53%

From patent USRE44971E1, “Method for selection of transformed cells” (priority 2006, dated 2014)
